Laboratory results as given in patent US20060073146A1.
No constants are given. Whether binding was seen depends on the method and setting. Some binding calls cover weakened binding; strength is not graded here. Tags and fused reporters may be left off the sequences shown.

Target: TALL-1, membrane form on transfected COS 7 cells (chimeric ligand: TNF-alpha intracellular and transmembrane regions, TALL-1 extracellular region aa 75-285) (human) (UniProt P01375)
Test: Fc fusion on ligand-transfected COS 7 cells, Cy3 staining

binding: binds
B1: TACI-ECD.hFc immunoadhesin (amino acids 2-166 of human TACI fused to human IgG1 Fc) (Fc fusion, not shown: a dimerising Fc or GST)
chain: SGLGRSRRGGRSRVDQEERFPQGLWTGVAMRSCPEEQYWDPLLGTCMSCKTICNHQSQRTCAAFCRSLSCRKEQGKFYDHLLRDCISCASICGQHPKQCAYFCENKLRSPVNLPPELRRQRSGEVENNSDNSGRYQGLEHRGSEASPALPGLKLSADQVALVYST
